Laboratory results as given in the supplement of paper PMC6411743.
± gives the standard deviation of the averaged measurements. The list shows a part of the results, in another mix than the full data. Small differences around the control level are noise.

Amino acid sequences for entries named in this document (tags omitted). A change or cut given only in a name is not applied to a line headed by its entry.
UniProt Q9NZM3: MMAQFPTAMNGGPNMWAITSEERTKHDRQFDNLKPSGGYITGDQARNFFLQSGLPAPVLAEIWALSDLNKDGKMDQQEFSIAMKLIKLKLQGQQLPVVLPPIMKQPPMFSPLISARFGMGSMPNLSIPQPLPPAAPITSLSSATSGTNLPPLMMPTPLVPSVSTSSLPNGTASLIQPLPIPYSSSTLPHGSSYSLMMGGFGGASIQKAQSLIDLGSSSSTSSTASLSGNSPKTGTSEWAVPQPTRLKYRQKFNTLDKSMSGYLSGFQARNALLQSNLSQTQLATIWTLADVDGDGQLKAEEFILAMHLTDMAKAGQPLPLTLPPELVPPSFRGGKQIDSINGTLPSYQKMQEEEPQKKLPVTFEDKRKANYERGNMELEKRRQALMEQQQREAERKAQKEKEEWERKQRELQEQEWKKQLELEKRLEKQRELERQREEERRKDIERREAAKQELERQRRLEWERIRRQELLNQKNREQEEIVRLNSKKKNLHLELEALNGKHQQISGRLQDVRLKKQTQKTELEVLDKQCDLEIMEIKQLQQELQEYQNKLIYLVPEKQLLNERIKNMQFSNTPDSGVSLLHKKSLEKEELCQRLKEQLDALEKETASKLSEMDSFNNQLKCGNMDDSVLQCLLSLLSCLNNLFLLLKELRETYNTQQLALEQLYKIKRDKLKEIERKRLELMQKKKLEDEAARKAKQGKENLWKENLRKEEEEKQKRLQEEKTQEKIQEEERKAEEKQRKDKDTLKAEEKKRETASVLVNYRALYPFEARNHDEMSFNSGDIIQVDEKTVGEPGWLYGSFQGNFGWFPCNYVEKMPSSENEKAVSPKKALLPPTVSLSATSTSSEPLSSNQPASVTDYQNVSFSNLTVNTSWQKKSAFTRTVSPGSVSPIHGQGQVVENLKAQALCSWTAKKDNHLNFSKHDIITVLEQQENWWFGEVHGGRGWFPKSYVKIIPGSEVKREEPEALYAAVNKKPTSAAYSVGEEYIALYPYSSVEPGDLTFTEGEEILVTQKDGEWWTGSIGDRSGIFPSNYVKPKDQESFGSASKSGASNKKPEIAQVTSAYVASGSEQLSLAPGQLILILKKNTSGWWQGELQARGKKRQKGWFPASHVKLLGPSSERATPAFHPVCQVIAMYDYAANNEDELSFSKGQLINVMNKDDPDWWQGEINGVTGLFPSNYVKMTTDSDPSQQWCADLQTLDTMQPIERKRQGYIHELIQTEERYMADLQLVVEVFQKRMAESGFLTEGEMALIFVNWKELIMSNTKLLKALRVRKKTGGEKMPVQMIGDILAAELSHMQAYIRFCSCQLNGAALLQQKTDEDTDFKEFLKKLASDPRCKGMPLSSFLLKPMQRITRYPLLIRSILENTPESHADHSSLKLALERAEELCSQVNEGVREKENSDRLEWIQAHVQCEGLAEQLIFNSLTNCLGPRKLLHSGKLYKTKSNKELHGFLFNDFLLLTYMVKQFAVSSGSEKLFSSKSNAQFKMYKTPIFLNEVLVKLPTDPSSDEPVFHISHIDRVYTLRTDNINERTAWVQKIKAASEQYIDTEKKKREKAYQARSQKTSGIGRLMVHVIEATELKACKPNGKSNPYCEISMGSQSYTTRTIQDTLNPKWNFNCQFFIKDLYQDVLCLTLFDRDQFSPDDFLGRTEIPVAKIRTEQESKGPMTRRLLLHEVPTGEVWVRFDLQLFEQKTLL
UniProt P09326: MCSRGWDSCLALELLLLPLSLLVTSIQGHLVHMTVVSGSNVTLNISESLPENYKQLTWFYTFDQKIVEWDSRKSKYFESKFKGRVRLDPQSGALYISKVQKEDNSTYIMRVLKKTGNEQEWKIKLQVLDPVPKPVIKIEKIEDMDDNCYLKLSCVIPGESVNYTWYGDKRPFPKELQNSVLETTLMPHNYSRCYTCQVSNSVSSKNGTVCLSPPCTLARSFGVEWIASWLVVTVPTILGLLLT
UniProt P61077: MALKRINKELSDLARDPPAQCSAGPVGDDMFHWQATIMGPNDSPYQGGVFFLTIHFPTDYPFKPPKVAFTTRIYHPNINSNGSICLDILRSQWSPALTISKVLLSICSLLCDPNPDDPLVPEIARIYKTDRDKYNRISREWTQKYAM
UniProt P01850: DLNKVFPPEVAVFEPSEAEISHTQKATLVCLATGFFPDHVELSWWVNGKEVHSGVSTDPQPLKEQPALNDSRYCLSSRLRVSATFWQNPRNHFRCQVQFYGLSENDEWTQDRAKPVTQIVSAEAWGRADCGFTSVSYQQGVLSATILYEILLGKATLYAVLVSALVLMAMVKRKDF
UniProt Q9H299: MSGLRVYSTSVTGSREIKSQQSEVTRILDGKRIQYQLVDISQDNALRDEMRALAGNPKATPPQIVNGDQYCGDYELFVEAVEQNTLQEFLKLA
UniProt Q96D31, whole entry, looked up: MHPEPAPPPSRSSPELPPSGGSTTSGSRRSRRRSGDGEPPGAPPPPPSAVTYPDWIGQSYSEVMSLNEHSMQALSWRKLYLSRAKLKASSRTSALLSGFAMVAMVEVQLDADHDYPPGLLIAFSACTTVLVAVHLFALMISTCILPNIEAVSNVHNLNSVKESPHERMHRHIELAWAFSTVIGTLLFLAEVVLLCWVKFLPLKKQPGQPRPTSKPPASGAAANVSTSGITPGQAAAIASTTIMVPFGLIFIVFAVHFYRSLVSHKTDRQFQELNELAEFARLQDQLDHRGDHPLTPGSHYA
UniProt P28370, whole entry: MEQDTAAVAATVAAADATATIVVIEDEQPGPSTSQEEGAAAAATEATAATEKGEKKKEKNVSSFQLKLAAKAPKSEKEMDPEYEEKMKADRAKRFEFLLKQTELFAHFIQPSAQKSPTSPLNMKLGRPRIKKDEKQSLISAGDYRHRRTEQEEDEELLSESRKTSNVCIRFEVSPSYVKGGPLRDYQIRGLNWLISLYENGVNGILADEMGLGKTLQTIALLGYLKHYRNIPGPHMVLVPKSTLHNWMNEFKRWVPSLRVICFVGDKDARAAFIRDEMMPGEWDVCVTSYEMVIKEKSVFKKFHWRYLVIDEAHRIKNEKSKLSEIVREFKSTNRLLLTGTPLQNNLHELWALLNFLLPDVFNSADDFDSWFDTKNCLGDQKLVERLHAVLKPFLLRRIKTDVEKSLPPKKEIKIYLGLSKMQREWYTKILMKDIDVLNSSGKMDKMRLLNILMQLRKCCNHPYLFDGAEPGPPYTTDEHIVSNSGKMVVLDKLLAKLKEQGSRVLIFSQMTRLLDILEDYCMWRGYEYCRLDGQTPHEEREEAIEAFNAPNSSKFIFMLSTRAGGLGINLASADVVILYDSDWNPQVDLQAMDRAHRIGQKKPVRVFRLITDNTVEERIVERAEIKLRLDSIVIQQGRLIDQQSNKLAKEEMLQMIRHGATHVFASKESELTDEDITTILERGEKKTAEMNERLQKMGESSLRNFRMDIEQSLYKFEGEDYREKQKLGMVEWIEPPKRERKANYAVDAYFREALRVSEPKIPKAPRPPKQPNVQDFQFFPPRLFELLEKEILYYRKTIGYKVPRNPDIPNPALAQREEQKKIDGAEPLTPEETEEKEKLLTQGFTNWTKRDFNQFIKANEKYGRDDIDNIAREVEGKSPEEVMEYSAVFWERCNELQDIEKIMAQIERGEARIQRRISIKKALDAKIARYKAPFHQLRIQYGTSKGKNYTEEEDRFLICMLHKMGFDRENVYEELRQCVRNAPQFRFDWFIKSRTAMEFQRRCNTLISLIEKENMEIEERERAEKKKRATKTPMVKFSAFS
UniProt O75027: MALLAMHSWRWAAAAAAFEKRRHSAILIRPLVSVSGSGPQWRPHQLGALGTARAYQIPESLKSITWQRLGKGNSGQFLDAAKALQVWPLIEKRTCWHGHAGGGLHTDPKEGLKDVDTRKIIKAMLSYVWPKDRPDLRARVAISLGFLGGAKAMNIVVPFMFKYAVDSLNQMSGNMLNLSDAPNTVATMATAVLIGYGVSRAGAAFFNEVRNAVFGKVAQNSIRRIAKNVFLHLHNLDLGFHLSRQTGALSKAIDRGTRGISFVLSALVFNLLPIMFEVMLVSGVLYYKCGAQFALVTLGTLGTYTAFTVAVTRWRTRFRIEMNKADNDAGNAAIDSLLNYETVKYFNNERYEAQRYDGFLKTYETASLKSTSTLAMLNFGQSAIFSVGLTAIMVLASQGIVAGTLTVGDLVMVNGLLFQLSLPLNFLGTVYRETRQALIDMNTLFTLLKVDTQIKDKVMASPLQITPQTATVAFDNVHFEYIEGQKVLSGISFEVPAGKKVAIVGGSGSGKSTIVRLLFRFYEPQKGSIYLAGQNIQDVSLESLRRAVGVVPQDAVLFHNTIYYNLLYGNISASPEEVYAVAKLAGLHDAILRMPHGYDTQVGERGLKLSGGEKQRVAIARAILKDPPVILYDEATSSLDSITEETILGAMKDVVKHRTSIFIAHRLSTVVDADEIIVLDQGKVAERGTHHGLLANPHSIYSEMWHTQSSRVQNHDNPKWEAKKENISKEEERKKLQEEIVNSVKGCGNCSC
UniProt O15318: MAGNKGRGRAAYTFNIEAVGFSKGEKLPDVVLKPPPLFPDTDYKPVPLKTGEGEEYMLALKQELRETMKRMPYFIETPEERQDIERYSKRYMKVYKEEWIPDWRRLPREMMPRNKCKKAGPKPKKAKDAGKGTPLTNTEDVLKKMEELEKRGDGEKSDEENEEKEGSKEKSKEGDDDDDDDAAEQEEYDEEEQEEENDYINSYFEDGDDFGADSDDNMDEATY
UniProt P07203, whole entry: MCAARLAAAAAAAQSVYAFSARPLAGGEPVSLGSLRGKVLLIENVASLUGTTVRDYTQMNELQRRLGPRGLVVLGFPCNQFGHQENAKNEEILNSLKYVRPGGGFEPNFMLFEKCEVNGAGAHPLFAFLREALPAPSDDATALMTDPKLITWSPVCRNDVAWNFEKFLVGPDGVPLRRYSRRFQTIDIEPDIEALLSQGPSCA
UniProt Q9UBW5: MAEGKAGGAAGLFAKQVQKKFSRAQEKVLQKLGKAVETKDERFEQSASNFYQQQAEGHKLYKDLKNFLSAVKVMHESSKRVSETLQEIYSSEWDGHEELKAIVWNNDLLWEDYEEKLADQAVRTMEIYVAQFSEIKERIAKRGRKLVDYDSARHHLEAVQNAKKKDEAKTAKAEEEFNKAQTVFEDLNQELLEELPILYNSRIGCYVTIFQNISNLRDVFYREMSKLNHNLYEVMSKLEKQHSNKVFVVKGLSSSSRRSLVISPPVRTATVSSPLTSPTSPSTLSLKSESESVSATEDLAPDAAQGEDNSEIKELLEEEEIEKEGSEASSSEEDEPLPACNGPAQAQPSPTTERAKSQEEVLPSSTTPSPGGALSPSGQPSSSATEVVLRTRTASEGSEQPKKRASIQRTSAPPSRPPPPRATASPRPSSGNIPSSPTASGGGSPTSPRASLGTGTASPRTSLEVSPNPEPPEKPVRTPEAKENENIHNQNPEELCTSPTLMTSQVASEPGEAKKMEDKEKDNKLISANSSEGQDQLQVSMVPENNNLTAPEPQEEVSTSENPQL
UniProt Q9H3P2, whole entry: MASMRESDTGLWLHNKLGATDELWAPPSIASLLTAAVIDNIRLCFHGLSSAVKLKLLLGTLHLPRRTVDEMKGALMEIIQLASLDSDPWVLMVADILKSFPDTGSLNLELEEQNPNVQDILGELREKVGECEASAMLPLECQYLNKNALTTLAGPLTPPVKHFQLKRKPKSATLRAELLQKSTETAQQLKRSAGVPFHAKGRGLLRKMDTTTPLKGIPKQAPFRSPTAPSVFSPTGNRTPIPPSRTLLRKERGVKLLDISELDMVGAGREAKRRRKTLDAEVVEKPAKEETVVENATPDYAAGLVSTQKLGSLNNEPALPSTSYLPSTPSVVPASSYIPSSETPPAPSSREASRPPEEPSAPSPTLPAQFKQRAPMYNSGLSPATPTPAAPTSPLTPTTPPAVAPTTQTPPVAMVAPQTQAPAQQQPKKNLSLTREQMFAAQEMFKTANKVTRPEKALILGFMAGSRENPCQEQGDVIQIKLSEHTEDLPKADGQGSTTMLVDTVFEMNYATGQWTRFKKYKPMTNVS

Compound: Nc1ncnc2c1ncn2[C@@H]1O[C@H](COP(=O)(O)OP(=O)(O)OP(=O)(O)O)[C@@H](O)[C@H]1O [adenosine triphosphate]
Assay: NP40-soluble protein abundance relative to vehicle (solubility fold change) (ratio); higher = more soluble protein in presence of ATP
In short: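 Values are fold changes against the detergent-processed vehicle, based on vsn-normalised intensities. Jurkat crude lysate was treated at eight concentrations from 0.1 to 10 mM (10 min at room temperature, then 3 min at 37 °C), solubilised with 0.8% NP40 and benzonase, ultracentrifuged and analysed by TMT-labelled LC-MS/MS over three independent experiments.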

A0A087WVF7|F8W719 and related entries (UniProt Q9NZM3)
NP40-soluble protein abundance (concentration: 0.1mM): 1.01 ± 0.0045
NP40-soluble protein abundance (concentration: 0.5mM): 1.01 ± 0.065

A0A087X1S7|P09326 (UniProt P09326)
NP40-soluble protein abundance (concentration: 0.1mM): 0.929 ± 0.029
NP40-soluble protein abundance (concentration: 0.5mM): 0.937 ± 0.074

A0A096LP10|Q9NP73-2|A0A087WTT9|A0A087WX43|A0A096LNJ4|D6RE84 and related entries (UniProt Q9NP73)
NP40-soluble protein abundance (concentration: 0.1mM): 1.13 ± 0.15
NP40-soluble protein abundance (concentration: 0.5mM): 0.994 ± 0.041

A0A087WY85|P61077 and related entries (UniProt P61077)
NP40-soluble protein abundance (concentration: 0.1mM): 0.957 ± 0.041
NP40-soluble protein abundance (concentration: 0.5mM): 0.923 ± 0.046

A0A087WZV8|A0A0G2JN66 (UniProt P01850)
NP40-soluble protein abundance (concentration: 0.1mM): 1 ± 0.043
NP40-soluble protein abundance (concentration: 0.5mM): 1.01 ± 0.03

A0A087WV23|Q5T123 and related entries (UniProt Q9H299)
NP40-soluble protein abundance (concentration: 0.1mM): 0.897 ± 0.059
NP40-soluble protein abundance (concentration: 0.5mM): 0.854 ± 0.1

A0A0B4J2E8|Q96D31 and related entries (UniProt Q96D31)
NP40-soluble protein abundance (concentration: 0.1mM): 1.02 ± 0.012
NP40-soluble protein abundance (concentration: 0.5mM): 0.923 ± 0.1

A0A0A0MR87|E9PSF2 and related entries (UniProt Q15468)
NP40-soluble protein abundance (concentration: 0.1mM): 0.847 ± 0.098
NP40-soluble protein abundance (concentration: 0.5mM): 0.79 ± 0.1

A0A0A0MRP6|B7ZLQ5 and related entries (UniProt P28370)
NP40-soluble protein abundance (concentration: 0.1mM): 1.1 ± 0.03
NP40-soluble protein abundance (concentration: 0.5mM): 1.09 ± 0.012

A0A087WW65|O75027 and related entries (UniProt O75027)
NP40-soluble protein abundance (concentration: 0.1mM): 1.11 ± 0.11
NP40-soluble protein abundance (concentration: 0.5mM): 1.05 ± 0.084

A0A087WTV7|D6R9U7 and related entries (UniProt O15318)
NP40-soluble protein abundance (concentration: 0.1mM): 0.901 ± 0.031
NP40-soluble protein abundance (concentration: 0.5mM): 0.967 ± 0.07

A0A087WUQ6|P07203 (UniProt P07203)
NP40-soluble protein abundance (concentration: 0.1mM): 0.991 ± 0.062
NP40-soluble protein abundance (concentration: 0.5mM): 0.988 ± 0.025

A0A087X188|F5H0W4 and related entries (UniProt Q9UBW5)
NP40-soluble protein abundance (concentration: 0.1mM): 0.998 ± 0.016
NP40-soluble protein abundance (concentration: 0.5mM): 0.992 ± 0.035

A0A0C4DFX9|Q9H3P2 (UniProt Q9H3P2)
NP40-soluble protein abundance (concentration: 0.1mM): 1.04 ± 0.023
NP40-soluble protein abundance (concentration: 0.5mM): 0.975 ± 0.019
